PubChem BioAssay AID504444 (National Center for Advancing Translational Sciences (NCATS), 2011)
In all, about 360,000 compounds went through this assay and about 7,500 (2.1%) were called active. Inconclusive results, whose numbers are uncertain, are shown with a selection of clear calls. The call rests on the fitted dose curve; in most records, active means well fitted inhibition curve with a large enough effect; inconclusive means small, poorly fitted or top-dose-only effect, or effect the other way; inactive means flat fitted curve, though single readings scatter. Potencies beside an inconclusive call are fits to weak or partial responses and may not hold up.

Test: Nrf2 qHTS screen for inhibitors; further: nearly all actives have a fitted effect of over 60% in size
Conditions: A549 ARE-Fluc reporter, luciferase luminescence, 18-24 h; series mostly up to 46 µM
Method in brief: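 Reporter: ARE-Fluc in A549. Exposure: 18-24 h, 37 °C, 5% CO2, 5% FBS OPTI-MEM. Readouts: fluorescent cytotoxicity (CellTiter-Fluor), then luminescent Nrf2 signal after BugLite.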
Potency means the concentration at half of the fitted maximal effect.

| SMILES | Potency |
| --- | --- |
| Cc1csc(NC(=O)C2CCN(S(=O)(=O)c3ccccc3F)CC2)n1 | inconclusive: 23.1 µM [falling, single point] |
| Fc1ccc(C2=NNC(=NCc3ccccc3)SC2)cc1F | inconclusive: 29.1 µM [falling, single point] |
| O=C(COC(=O)CNC(=O)c1ccc([N+](=O)[O-])o1)Nc1ncc(C(F)(F)F)cc1Cl | inconclusive: 3.26 µM [falling, full curve, poor fit] |
| O=C(OCc1nnc(-c2ccccc2)o1)c1cccc(S(=O)(=O)N2CCOCC2)c1 | inconclusive: 4.11 µM [activator, partial curve, poor fit] |
| CCOC(=O)c1[nH]c(C)c(C(=O)OCc2ccccc2F)c1C | inactive |
| NS(=O)(=O)c1ccc(NC(=O)CSc2ncnc3ccccc23)cc1 | inconclusive: 9.2 µM [falling, partial curve, poor fit] |
| CCOc1ccc(CN(C)C(=O)c2cc(S(=O)(=O)N3CCCC3)ccc2C)cc1 | inconclusive: 20.6 µM [falling, single point] |
| CC(C)Cn1c(N)c(C(=O)CSc2nnnn2-c2ccc(Cl)cc2)c(=O)n(C)c1=O | inconclusive: 16.4 µM [falling, partial curve, poor fit] |
| Cc1cc(O)c(C(=O)/C=C/c2ccccc2Br)c(=O)o1 | inconclusive: 8.2 µM [falling, partial curve, poor fit] |
| COC(=O)c1cc(OC)c(OC)cc1NC(=S)N1CCN(c2ccccc2)CC1 | inconclusive: 23.1 µM [falling, single point] |
| CCOc1ccc(Nc2cc(C)nc3ccc(C)cc23)cc1 | inactive |
| O=c1oc2ccccc2cc1NCc1ccccc1O | inconclusive: 29.1 µM [activator, single point] |
| CC(C)NS(=O)(=O)c1ccc(NC(=O)CCc2ccccc2)cc1 | inconclusive: 29.1 µM [falling, partial curve, poor fit] |
| O=c1[nH]c2cc3c(cc2cc1C(c1nnnn1Cc1ccccc1)N1CCCCCC1)OCCO3 (configuration not stated) | inconclusive: 29.1 µM [falling, single point] |
| C=C(C)Cn1c(SCC(=O)N/N=C/c2cccc(O)c2)nc2ccccc2c1=O | inactive |
| COc1ccc(CC(=O)N2CCC(Nc3nc4ccccc4n3Cc3ccc(F)cc3)CC2)cc1 | inconclusive: 35.5 µM [falling, single point] |
| O=C(Nc1ccon1)c1ccc(N2CCCCC2)c([N+](=O)[O-])c1 | inconclusive: 7.31 µM [activator, partial curve] |
| Cc1cccc(Nc2nc(N)nc(CCl)n2)c1C | active: 10.3 µM |
| Cc1ccc(NC(=O)c2ccc3c(c2)NC(=O)c2ccccc2S3)cc1 | active: 16.4 µM |
| N#CC1=C(N)C(C#N)(C#N)C(c2ccncc2)C2CN(C(=O)OCc3ccccc3)CC=C12 (configuration not stated) | active: 23.1 µM |
| N#Cc1c(-c2cccc(Cl)c2)[nH]c(=S)[nH]c1=O | inactive |

| SMILES | Potency |
| --- | --- |
| COc1ccc(CCn2c(N)c(S(=O)(=O)c3cccs3)c3nc4ccccc4nc32)cc1OC | inconclusive: 20.6 µM [falling, single point] |
| CCN(CC)CCCNC(=O)C(=O)Nc1ccc2nc3n(c(=O)c2c1)CCCCC3 | inconclusive: 20.6 µM [activator, single point] |
| Cc1ncc(CN2CCCC(C(=O)Nc3ccc(-c4cccc(F)c4)cc3)C2)cn1 (configuration not stated) | inconclusive: 23.1 µM [falling, single point] |
| CC(=O)c1sc(NC(=O)COc2ccc(C(C)C)c(C)c2)nc1C | inconclusive: 14.6 µM [falling, partial curve, poor fit] |
| COc1ccc(N(CC(=O)Nc2cc(C)ccc2C)S(=O)(=O)c2c(C)nn(C)c2C)cc1 | inconclusive: 0.82 µM [falling, partial curve] |
| COc1ccc(CN(C)C(=O)CNC(=O)c2sc3ccccc3c2Cl)c(OC)c1OC | inconclusive: 29.1 µM [falling, single point] |
| CCN(CC)C(=O)[C@H]1CC(CC(=O)NCCN2CCOCC2)C(=O)N2CCc3c([nH]c4ccccc34)[C@]12C (some centres not stated) | inactive |
| Cn1c(=O)c2c(-c3ccccc3Br)n(Cc3ccccc3)cc2n(C)c1=O | inactive |
| CCCCc1nc2ccccc2c(=O)n1NC(=O)c1c(O)c2cccc3c2n(c1=O)CC3 | inconclusive: 6.51 µM [falling, single point] |
| Cc1ccc(S(=O)(=O)N2CCN(C(=O)c3cccs3)CC2)cc1C | inconclusive: 9.2 µM [falling, partial curve] |
| COc1cc(C=O)ccc1OCCCCOc1ccccc1[N+](=O)[O-] | inactive |
| COc1ccc(N=C2SCC(c3ccc([N+](=O)[O-])cc3)=NN2CCO)cc1 | inconclusive: 23.1 µM [falling, single point] |
| Cc1cccc(Cl)c1NC(=O)N1CCCN(c2nc3ccc(Cl)cc3s2)CC1 | active: 9.2 µM |
| Cc1ccc(SCc2cc(=O)[nH]c(Nc3nc(C)c4cccc(C)c4n3)n2)cc1 | inconclusive: 32.6 µM [activator, single point] |
| COc1ccc(C(=O)NN)cc1COc1ccc(Br)cc1 | inconclusive: 18.4 µM [falling, single point] |
| c1ccc(COc2ccccc2CNCc2cccnc2)cc1 | inconclusive: 23.1 µM [falling, partial curve, poor fit] |
| O=C(Cn1nnc2ccccc21)N1CCCCC1 | inconclusive: 3.66 µM [activator, full curve, poor fit] |
| COc1ccccc1N1C(=O)C2C(C(=O)c3ccccc3)=NN(c3ccc(C)cc3)C2C1=O (configuration not stated) | inconclusive: 18.4 µM [activator, single point] |
| Cc1nc2c(cnn2-c2ccccc2)c(=O)[nH]1 | inconclusive: 3.66 µM [activator, single point] |
| Fc1ccccc1N1CCN(c2ncnc3onc(-c4cccc(Cl)c4)c23)CC1 | inconclusive: 29.1 µM [falling, single point] |
| NC(=S)Cc1ccc(Cl)cc1Cl | inconclusive: 7.31 µM [falling, partial curve] |

3 structures already listed, arranged by number of heavy atoms, rising.

| SMILES | Potency |
| --- | --- |
| Cc1nc2c(cnn2-c2ccccc2)c(=O)[nH]1 | inconclusive: 3.66 µM [activator, single point] |
| Cn1c(=O)c2c(-c3ccccc3Br)n(Cc3ccccc3)cc2n(C)c1=O | inactive |
| Cc1ccc(SCc2cc(=O)[nH]c(Nc3nc(C)c4cccc(C)c4n3)n2)cc1 | inconclusive: 32.6 µM [activator, single point] |
